One molecule from PubChem BioAssay can be followed below.

The list shows a part of the results, in another mix than the full data.

A short description of assay [1]: NFkB reporter suppression in cystic fibrosis bronchial cells – cell-based, uHTS hits, panel, cytotoxicity readout, dose response (AID 624344). Conditions: CF bronchial epithelial cells, PAF-induced NFkB reporter inhibition, with PAF, run 1; at 79 µM (top of the series).
Assay in assay [2]: as above
As to conditions: CF bronchial epithelial cells, PAF-induced NFkB reporter inhibition, with PAF, run 2; at 79 µM (top of the series).

On to `COc1c(O)cc2c(c1OC)-c1ccc(OC)c(=O)cc1C(NC(C)=O)CC2` (configuration not stated), for which the inhibition in assay [1] is -1.95%; in assay [2] it was 14.2%.
